The supplement of paper PMC12823440, “Inhibitors supercharge kinase turnover through native proteolytic circuits” (Nature, 2025)
Structures can show the parent of a compound that is named as a salt. This is one part of the list. Hit calls seldom repeat between salt and free forms of one compound.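 Kinases were expressed as nanoluciferase fusions in K562 cells and luminescence was read every 4 h between 2 and 18 h as percent of control, DMSO set to 100% and a positive control to 0%. A time point counts as decreased when the signal drops significantly (2 sigma). The hit call is the authors' own, does not follow from the count of time points alone, and its rule is not shown.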

Amino acid sequences for entries named in this document (tags omitted). A change or cut given only in a name is not applied to a line headed by its entry.
UniProt Q9UBF8: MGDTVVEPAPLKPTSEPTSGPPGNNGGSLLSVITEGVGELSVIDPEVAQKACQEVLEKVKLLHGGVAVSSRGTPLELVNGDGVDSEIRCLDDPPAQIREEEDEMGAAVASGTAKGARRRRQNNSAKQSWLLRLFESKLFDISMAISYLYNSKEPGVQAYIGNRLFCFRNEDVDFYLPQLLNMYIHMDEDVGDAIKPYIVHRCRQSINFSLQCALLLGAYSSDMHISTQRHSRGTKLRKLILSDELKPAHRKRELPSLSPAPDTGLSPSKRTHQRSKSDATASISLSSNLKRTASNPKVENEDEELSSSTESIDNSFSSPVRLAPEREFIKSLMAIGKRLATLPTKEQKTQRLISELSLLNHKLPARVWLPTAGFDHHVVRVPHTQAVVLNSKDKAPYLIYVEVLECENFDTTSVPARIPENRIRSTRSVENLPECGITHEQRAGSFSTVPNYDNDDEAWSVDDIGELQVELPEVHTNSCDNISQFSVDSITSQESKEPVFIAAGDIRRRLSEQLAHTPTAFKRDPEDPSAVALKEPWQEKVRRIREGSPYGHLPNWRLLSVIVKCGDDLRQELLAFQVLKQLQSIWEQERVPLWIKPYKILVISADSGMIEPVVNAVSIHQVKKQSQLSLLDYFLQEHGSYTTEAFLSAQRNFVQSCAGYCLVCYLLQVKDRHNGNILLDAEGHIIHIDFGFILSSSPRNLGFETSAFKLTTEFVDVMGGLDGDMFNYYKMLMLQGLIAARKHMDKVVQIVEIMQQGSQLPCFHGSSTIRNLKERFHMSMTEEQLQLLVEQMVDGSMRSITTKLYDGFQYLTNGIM

What follows are compounds tested against PIK4CB (UniProt Q9UBF8) (assay: kinase-Nluc reporter destabilization hit call (1 = scored as downregulated) (binary); higher = compound decreases kinase abundance). Settings: 2.5 µM; K562; 2-18 h.

kinase-Nluc reporter destabilization hit call, inactive:
CN1CCCN(C(=O)c2cccc(-c3ccc(/C=C4/C(=O)Nc5ccc(Cl)cc54)o3)c2)CC1 [CX-6258 (hydrochloride)] 0
Clc1ccc(C2(c3ccc(-c4cn[nH]c4)cc3)CCNCC2)cc1 [AT7867 (dihydrochloride)] 0
CC(C)Oc1ccc(-c2nn([C@@H](C)c3oc4ccc(F)cc4c(=O)c3-c3cccc(F)c3)c3ncnc(N)c23)cc1F [Umbralisib] 0
C=CC(=O)Nc1cc(Nc2nccc(-c3cn(C)c4ccccc34)n2)c(OC)cc1N(C)CCN(C)C [Osimertinib] 0
COc1cc2c(Oc3ccc4[nH]c(C)cc4c3F)ncnc2cc1OCCCN1CCCC1 [Cediranib (maleate)] 0
CC(C)Oc1ccc(-c2nn([C@@H](C)c3oc4ccc(F)cc4c(=O)c3-c3cccc(F)c3)c3ncnc(N)c23)cc1F [Umbralisib (hydrochloride)] 0
COc1ccc(S(=O)(=O)N(CCO)c2ccccc2CN(C)C/C=C/c2ccc(Cl)cc2)cc1 [KN-93 (hydrochloride)] 0
C=CC(=O)N1CCN(c2ncnc3c(F)c(-c4c(O)cccc4F)c(Cl)cc23)CC1 0
COc1ccc(S(=O)(=O)Nc2ccccc2CN(C)C/C=C/c2ccc(Cl)cc2)cc1 [KN-92 (hydrochloride)] 0
CCN(CC)Cc1ccc(OC)c(-c2cc3c(-c4ccc(C(=O)O)c(C(C)C)c4)ccnc3[nH]2)c1 0
CN(C)C/C=C/C(=O)Nc1cc2c(Nc3ccc(F)c(Cl)c3)ncnc2cc1O[C@H]1CCOC1 [Afatinib (dimaleate)] 0
Oc1cccc(-c2nc(N3CCOCC3)c3oc4ncccc4c3n2)c1 [PI-103 (Hydrochloride)] 0
c1cc(-c2cnn3cc(-c4ccc(OCCN5CCCCC5)cc4)cnc23)ccn1 [Dorsomorphin] 0
COc1ccc(S(=O)(=O)N(CCO)c2ccccc2CN(C)C/C=C/c2ccc(Cl)cc2)cc1 [KN-93 (phosphate)] 0
Nc1ncnc2c1c(-c1ccc(Oc3ccccc3)cc1)nn2[C@@H]1CCCNC1 [IBT6A (hydrochloride)] 0

Nothing new here: entries from further up.
kinase-Nluc reporter destabilization hit call, inactive:
CCN(CC)Cc1ccc(OC)c(-c2cc3c(-c4ccc(C(=O)O)c(C(C)C)c4)ccnc3[nH]2)c1 0
CN(C)C/C=C/C(=O)Nc1cc2c(Nc3ccc(F)c(Cl)c3)ncnc2cc1O[C@H]1CCOC1 [Afatinib (dimaleate)] 0
